# Some of the results follow. These are raw signals, not scaled to a control.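 Primary screen: polymyxin B was added at a level permeabilizing Salmonella outer membranes while sparing inner membranes. DMSO wells, both with and without polymyxin B, established maximum growth. Plate-to-plate variation meant each plate was ranked on its own, and the lowest-OD600 compounds were selected as hits.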
# Test system: Salmonella enterica serovar Typhimurium SL1344
# Experiment: bacterial growth OD600 after 18 h with compound and polymyxin B; higher = more bacterial growth (less inhibition)
# Conditions: 50 µM, Mueller-Hinton broth
compound,measurement,setting,value
COc1ccc(CC2=NOC(CNC(=O)c3ccccc3-n3cccn3)C2)cc1 (stereo not given),bacterial growth OD600,polymyxin B 0.75 µg/mL,0.89
CC(=O)CCC(=O)NC1CCCc2c1cnn2-c1cc(C)cc(C)c1 (stereo not given),bacterial growth OD600,polymyxin B 0.75 µg/mL,0.7
COCCN1C(=O)CC(CC(=O)N2CCN(C3CCCCC3)C(=O)C2)(c2cccc(OC)c2)C1=O (stereo not given),bacterial growth OD600,polymyxin B 0.75 µg/mL,0.815
COCC1CCCCN1C(=O)c1csc2nc(-c3cc(C)ccc3C)cn12 (stereo not given),bacterial growth OD600,polymyxin B 0.75 µg/mL,0.562
O=C(CCCn1cncn1)NCCN1Cc2ccccc2OC(c2ccccc2F)C1 (stereo not given),bacterial growth OD600,polymyxin B 0.75 µg/mL,0.863
Cc1ccccc1CC(C1CCN(C(=O)CCc2scnc2C)CC1)N(C)C(=O)Cn1cccn1 (stereo not given),bacterial growth OD600,polymyxin B 0.75 µg/mL,0.809
CSc1ccccc1C(=O)NCc1c(C)ncc2c1CCN(C(=O)c1csc(C)n1)C2,bacterial growth OD600,polymyxin B 0.75 µg/mL,0.826
O=C(CCC1CCN(C(=O)CCc2ccc3c(c2)OCO3)CC1)NC1CC1,bacterial growth OD600,polymyxin B 1 µg/mL,0.955
O=C(NC1CC(=O)N(Cc2ccc(F)cc2)C1)C(=O)c1ccccc1 (stereo not given),bacterial growth OD600,polymyxin B 1 µg/mL,0.848
COc1cccc(CC2(CCC(=O)N3CCCC(COc4cccc(C)c4)C3)CCC(=O)N2)c1 (stereo not given),bacterial growth OD600,polymyxin B 0.75 µg/mL,0.02
COCCn1c(CN2CCC(OC)CC2)cnc1S(=O)(=O)C1CCCCCC1,bacterial growth OD600,polymyxin B 0.75 µg/mL,0.743
CC(=O)Nc1cc(C(=O)NCC2(N3CCOCC3)CCCC2)c2c(c1)nc(C)n2Cc1ccccc1,bacterial growth OD600,polymyxin B 0.75 µg/mL,0.754
COc1ccc(CC2(CCC(=O)N3CCN(c4ccccc4)CC3C)CCC(=O)N2)c(F)c1 (stereo not given),bacterial growth OD600,polymyxin B 0.75 µg/mL,0.776
COCCCC1CCN(Cc2nc(-c3ccccc3)no2)CC1,bacterial growth OD600,polymyxin B 1 µg/mL,0.922
O=C(c1n[nH]c2ccccc12)N1CCC2(CCCN(CC3CC3)C2)C1 (stereo not given),bacterial growth OD600,polymyxin B 0.75 µg/mL,0.807
COc1ccc(CCN2CC(NC(=O)C(C)C)CC2=O)cc1 (stereo not given),bacterial growth OD600,polymyxin B 1 µg/mL,0.697
COc1cccc(C(=O)NCC2CCCN(C(=O)Cc3cccc(C)c3)C2)c1OC (stereo not given),bacterial growth OD600,polymyxin B 1 µg/mL,0.902
CCn1ccnc1CN1CCN(Cc2ccc(OC)c(C)c2)C(CCO)C1 (stereo not given),bacterial growth OD600,polymyxin B 1 µg/mL,0.913
O=C(NCCc1ccccn1)C1CC12CCN(C(=O)/C=C/c1ccc(Cl)cc1)CC2 (stereo not given),bacterial growth OD600,polymyxin B 0.75 µg/mL,0.939
CCOC(=O)C1(CCCc2ccccc2)CCCN(C(=O)c2ccc3c(c2)OCO3)C1 (stereo not given),bacterial growth OD600,polymyxin B 1 µg/mL,0.076
COc1ccc(-n2cc(CNCCN3CCC(O)CC3)c(-c3cccc(F)c3)n2)cc1,bacterial growth OD600,polymyxin B 1 µg/mL,0.237
Cc1nc(N(C)C2CCCCC2)ncc1C(C)NC1CCSCC1 (stereo not given),bacterial growth OD600,polymyxin B 1 µg/mL,1.26
CC#CCN1C(=O)NC(CCCc2ccccc2)(C2CCN(C(=O)c3ccoc3C)CC2)C1=O (stereo not given),bacterial growth OD600,polymyxin B 0.75 µg/mL,0.013
CN(C)C(=O)CN1CCN(C(=O)CCC2(Cc3ccc(Cl)cc3)CCC(=O)N2)CC1 (stereo not given),bacterial growth OD600,polymyxin B 0.75 µg/mL,0.884
OC(c1ccc2c(c1)CN(Cc1ccccn1)CCO2)C(c1ccccc1)c1ccccc1 (stereo not given),bacterial growth OD600,polymyxin B 0.75 µg/mL,0.705
O=C(NCC1Cc2cccc(-c3ncccn3)c2O1)c1ccc(-n2cccn2)cc1 (stereo not given),bacterial growth OD600,polymyxin B 0.75 µg/mL,1.01
Cc1ccsc1CN(C)C(=O)c1ccc(OC2CCN(C(=O)C3CC3)CC2)cc1,bacterial growth OD600,polymyxin B 1 µg/mL,1.04
COc1cccc(N2C[C@@H]3C[C@@H](C4=Cc5cc(OC)ccc5OC4)N4CCC[C@@]34C2=O)c1,bacterial growth OD600,polymyxin B 1 µg/mL,1.03
CN(Cc1ccc2nsnc2c1)C(=O)Cn1nnnc1CN1CCCC1,bacterial growth OD600,polymyxin B 0.75 µg/mL,0.72
Cc1ccc(C2(c3noc(CN4CCCCC4CO)n3)CCCC2)cc1 (stereo not given),bacterial growth OD600,polymyxin B 1 µg/mL,0.043

# 2 of these compounds, set out differently.
compound | measurement | setting | value
COc1ccc(CC2=NOC(CNC(=O)c3ccccc3-n3cccn3)C2)cc1 (stereo not given) | bacterial growth OD600 | polymyxin B 0.75 µg/mL | 0.89
CC(=O)CCC(=O)NC1CCCc2c1cnn2-c1cc(C)cc(C)c1 (stereo not given) | bacterial growth OD600 | polymyxin B 0.75 µg/mL | 0.7
